Source: paper doi:10.1101/2023.09.12.557426
Results are given in words; binding and its absence hold for the method and conditions named. In cells and extracts the contact can be indirect. Some results given as binding are weak or reduced against the parent protein; the word gives no strength.

Protein sequences, listed by entry. Tags and fused reporters are not part of them.
UniProt Q92621: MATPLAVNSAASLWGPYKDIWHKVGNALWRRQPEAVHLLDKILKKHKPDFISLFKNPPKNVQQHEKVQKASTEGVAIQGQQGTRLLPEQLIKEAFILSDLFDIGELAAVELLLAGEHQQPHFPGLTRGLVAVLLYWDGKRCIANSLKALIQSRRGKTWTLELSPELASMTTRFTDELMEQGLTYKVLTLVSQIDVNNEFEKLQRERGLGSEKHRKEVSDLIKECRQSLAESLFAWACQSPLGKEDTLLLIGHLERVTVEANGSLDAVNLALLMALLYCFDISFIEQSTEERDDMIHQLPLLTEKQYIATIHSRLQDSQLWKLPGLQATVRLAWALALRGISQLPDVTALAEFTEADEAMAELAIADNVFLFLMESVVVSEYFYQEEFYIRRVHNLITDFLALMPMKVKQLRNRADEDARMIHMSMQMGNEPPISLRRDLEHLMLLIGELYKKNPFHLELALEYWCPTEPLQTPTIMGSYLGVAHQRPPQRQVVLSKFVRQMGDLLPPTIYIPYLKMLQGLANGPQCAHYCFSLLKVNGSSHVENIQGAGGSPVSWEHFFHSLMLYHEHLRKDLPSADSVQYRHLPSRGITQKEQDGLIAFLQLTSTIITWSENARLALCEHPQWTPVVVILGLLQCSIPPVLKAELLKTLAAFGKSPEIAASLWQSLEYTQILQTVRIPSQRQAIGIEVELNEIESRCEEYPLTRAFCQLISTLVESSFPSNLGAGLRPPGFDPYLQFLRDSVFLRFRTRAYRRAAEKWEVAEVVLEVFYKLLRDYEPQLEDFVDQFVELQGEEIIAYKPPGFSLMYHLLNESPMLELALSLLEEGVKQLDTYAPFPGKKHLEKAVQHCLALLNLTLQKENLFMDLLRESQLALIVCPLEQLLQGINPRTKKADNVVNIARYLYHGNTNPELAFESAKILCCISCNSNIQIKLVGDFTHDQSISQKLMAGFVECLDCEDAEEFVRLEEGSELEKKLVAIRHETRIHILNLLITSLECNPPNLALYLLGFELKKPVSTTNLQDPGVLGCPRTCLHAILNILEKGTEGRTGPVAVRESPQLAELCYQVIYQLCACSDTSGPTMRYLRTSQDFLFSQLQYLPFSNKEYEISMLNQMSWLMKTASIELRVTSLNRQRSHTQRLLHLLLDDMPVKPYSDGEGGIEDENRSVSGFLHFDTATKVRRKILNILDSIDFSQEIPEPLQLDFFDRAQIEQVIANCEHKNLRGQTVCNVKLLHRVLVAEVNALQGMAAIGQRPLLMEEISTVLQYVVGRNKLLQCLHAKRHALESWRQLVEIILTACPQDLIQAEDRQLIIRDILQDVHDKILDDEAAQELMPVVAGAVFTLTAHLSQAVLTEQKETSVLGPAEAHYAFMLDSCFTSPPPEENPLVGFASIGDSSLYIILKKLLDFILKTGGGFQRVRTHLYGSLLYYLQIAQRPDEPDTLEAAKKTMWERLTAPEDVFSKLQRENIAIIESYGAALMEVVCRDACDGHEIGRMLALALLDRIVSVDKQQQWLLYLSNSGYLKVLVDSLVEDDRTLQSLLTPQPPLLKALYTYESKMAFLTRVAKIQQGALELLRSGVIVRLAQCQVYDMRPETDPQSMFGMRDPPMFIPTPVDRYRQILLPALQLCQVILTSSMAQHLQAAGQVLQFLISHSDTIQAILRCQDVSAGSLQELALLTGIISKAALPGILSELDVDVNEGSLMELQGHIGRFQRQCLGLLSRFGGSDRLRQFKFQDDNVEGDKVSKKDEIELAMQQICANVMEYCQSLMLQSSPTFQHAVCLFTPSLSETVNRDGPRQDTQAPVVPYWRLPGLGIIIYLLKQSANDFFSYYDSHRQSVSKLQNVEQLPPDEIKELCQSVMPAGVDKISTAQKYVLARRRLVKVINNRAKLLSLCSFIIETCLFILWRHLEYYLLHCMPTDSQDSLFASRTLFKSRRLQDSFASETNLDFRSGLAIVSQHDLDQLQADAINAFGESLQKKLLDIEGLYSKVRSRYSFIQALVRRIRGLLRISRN

Molecular target: T1, human Nup93 from HeLa lysate (human (endogenous in HeLa)) (UniProt Q8N1F7)
T1 sequence: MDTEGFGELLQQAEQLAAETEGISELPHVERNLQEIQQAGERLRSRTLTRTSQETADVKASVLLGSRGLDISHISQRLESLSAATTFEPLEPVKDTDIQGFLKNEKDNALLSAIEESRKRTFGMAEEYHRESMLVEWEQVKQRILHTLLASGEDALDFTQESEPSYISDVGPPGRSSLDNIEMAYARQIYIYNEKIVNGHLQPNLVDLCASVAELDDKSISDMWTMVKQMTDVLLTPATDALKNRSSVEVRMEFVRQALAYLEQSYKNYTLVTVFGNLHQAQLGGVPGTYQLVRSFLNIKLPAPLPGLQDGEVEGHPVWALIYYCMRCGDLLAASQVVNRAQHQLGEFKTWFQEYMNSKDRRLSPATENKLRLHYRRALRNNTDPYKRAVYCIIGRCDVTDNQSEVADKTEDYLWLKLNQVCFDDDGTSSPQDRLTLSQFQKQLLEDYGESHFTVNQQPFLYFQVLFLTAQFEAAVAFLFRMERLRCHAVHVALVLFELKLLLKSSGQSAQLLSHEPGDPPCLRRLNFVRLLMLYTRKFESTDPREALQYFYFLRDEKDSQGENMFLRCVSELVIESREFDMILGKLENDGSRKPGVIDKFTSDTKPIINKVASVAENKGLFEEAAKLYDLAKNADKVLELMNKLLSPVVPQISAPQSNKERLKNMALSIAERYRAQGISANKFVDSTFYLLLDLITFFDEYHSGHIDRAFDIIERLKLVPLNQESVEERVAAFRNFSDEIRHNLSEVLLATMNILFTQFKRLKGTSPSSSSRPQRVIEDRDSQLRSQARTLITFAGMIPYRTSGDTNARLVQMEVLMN
Experiment: pull-down

“human Nup205 from HeLa lysate (from UniProt Q92621 1-2012)” was tested, and the binding was “binds”.
